# In all, about 300,000 compounds went through this assay and about 5,400 (1.8%) were called active. The inconclusive results got no clear call from the source; some entries with a clear call stand among them for comparison. Calls follow the shape of the full dose curve; tested in HEK293 cells. A potency beside an inconclusive call is a rough fit, not a confirmed value.
# Assay: qHTS for inhibitors of binding or entry into cells for Marburg Virus
# Settings: Marburg virus pseudotyped entry inhibition, cell reporter; activity change, negative = inhibition: at 37.8 µM (top of the series) unless noted
# % is scaled to controls: 0 for no effect and ±100 for the full control effect; potency is read from the fitted curve at half-maximal effect.
SMILES,"activity change, negative = inhibition",Potency
CN(C)/C=N/C(=S)Nc1ccc(F)cc1,inactive: 14.2%,
CCN(CC(=O)NC1CCS(=O)(=O)C1)S(=O)(=O)c1cc(C)ccc1C (stereo unspecified),,"inconclusive: 35.5 µM [activator, single point]"
Cc1noc(C)c1C(c1ccccc1)S(=O)(=O)c1ccccc1 (stereo unspecified),,"inconclusive: 14.1 µM [inhibitor, partial curve]"
Clc1ccc(CNCc2cccs2)c(Cl)c1,inactive: 0.646%,
COc1ccc(NC(=S)N2CCN(CCN3C(=O)c4cccc5cccc(c45)C3=O)CC2)cc1,,"inconclusive: 2.51 µM [activator, partial curve]"
Cc1ccc2nc(-c3ccccn3)cc(C(=O)NCCc3ccc(F)cc3)c2c1,,"inconclusive: 0.708 µM [activator, single point]"
COCCN1C(=O)c2ccc(C(=O)Nc3cccnc3)cc2C1=O,inactive: 7.62%,
CC(=O)Nc1ccc(S(=O)(=O)N(c2cccnc2)S(=O)(=O)c2ccc(NC(C)=O)cc2)cc1,,"inconclusive: 29.1 µM [activator, single point]"
Cc1ccc(C(C(=O)NC2CCCCC2)N(Cc2ccco2)C(=O)Cn2cnc3ccccc32)cc1 (stereo unspecified),,"inconclusive: 14.1 µM [inhibitor, partial curve]"
COc1ccc(/C=C/C(=O)N(C)C2CCCCC2)cc1Br,,"inconclusive: 0.891 µM [activator, full curve, poor fit]"
CCOP(=O)(OCC)/C(C#N)=C/c1ccoc1,inactive: 19.9% [at 46.1 µM],
O=C(Nc1nc(-c2ccco2)c(-c2ccco2)s1)c1cnccn1,,"inconclusive: 0.501 µM [inhibitor, full curve, poor fit]"
Cc1ccc(C(=O)c2cc([N+](=O)[O-])ccc2N2CCOCC2)c(C)c1,,"inconclusive: 1 µM [inhibitor, partial curve, poor fit]"
COc1cc(/C=N/O)c(Br)cc1OCC(=O)Nc1ccccc1C,,"inconclusive: 5.62 µM [inhibitor, single point]"
Cc1cccc(C)c1OCC(=O)N/N=C/c1cc2c(cc1[N+](=O)[O-])OCO2,,"inconclusive: 29.1 µM [inhibitor, single point]"
O=C(c1ccc(F)cc1)C(C(=O)N1CCCCC1)n1ccccc1=O (stereo unspecified),inactive: -7.65% [at 46.1 µM],
COc1ccc(C(=O)N2CC(=O)Nc3ccc(F)cc3C2c2ccccc2)cc1 (stereo unspecified),inactive: -27.4% [at 46.1 µM],
O=C(NC(=Nc1nc2ccccc2o1)NC(=O)c1ccccc1)c1ccccc1,,"inconclusive: 12.6 µM [activator, partial curve]"
CCCCC1OC23CCCCC2C(C#N)(C#N)C1(C#N)C(=N)O3 (stereo unspecified),inactive: -4.41%,
O=C(O)c1cccc2c1C(=O)N(Cc1ccccc1)C2,inactive: 6.66%,
Cc1ccc(-c2nn3c(C)nnc3c3ccccc23)cc1S(=O)(=O)NC(C)(C)CO,,"inconclusive: 6.31 µM [inhibitor, full curve, poor fit]"
COc1ccc(-c2nnc(SCC(=O)O)n2Cc2ccccc2)cc1,inactive: 2.6% [at 46.1 µM],
CC(OC(=O)c1cccc(S(=O)(=O)N(C)C)c1)C(=O)NCC(=O)Nc1ccc(F)c(F)c1F (stereo unspecified),,"inconclusive: 35.5 µM [inhibitor, single point]"

SMILES,"activity change, negative = inhibition",Potency
Cc1c(C(=O)Nc2ccc(C(=O)Nc3ccccc3)cc2)cccc1[N+](=O)[O-],inactive: 0.389% [at 46.1 µM],
Cc1ccc(OC(=O)c2ccc3c(=O)n4c(nc3c2)CCC4)cc1,,"inconclusive: 35.5 µM [activator, single point]"
COc1ccc(CCNC(=O)Cc2ccccc2)cc1OC,inactive: 0.271% [at 46.1 µM],
Cc1cccc(C)c1NC(=O)CN(C)C(=O)CC1Sc2ccccc2NC1=O (stereo unspecified),,"inconclusive: 6.31 µM [activator, single point]"
COc1ccc(/C(O)=C2\C(=O)C(=O)N(CCN3CCOCC3)[C@H]2c2ccccc2OC)cc1,,"inconclusive: 3.98 µM [inhibitor, single point]"
CCc1ccc(NC(=O)c2sc3nc(C)cc(C)c3c2NC(=O)c2ccccc2)cc1,inactive: 19.6% [at 46.1 µM],
CC(C)(O)C#Cc1ccc(C(=O)NCc2cccs2)s1,inactive: 19.6%,
CC1=NN(c2ccccc2)C(=O)/C1=C\C=C1\N(C)c2ccccc2C1(C)C,inactive: 8.07%,
CCc1nc(C)cc(N)c1OCc1ccccc1,,"inconclusive: 0.708 µM [inhibitor, full curve, poor fit]"
O=C(O)c1cc(-c2ccc(O)cc2)on1,inactive: -2.62% [at 46.1 µM],
CCOC(=O)c1c(NC(=O)Cn2ccsc2=N)sc(C)c1C,,"inconclusive: 15.8 µM [inhibitor, single point]"
S=C(Nc1ccccc1)N1CCN(C(=S)c2ccccc2)CC1,inactive: 7.65% [at 46.1 µM],
O=C(c1ccccc1Cc1ccccc1)N1CCN(S(=O)(=O)c2ccccc2Br)CC1,,active: 12.6 µM
CC1=CC(C)(C)N(C(=O)CN2C(=O)c3ccccc3C2=O)c2ccc(C)cc21,,"inconclusive: 32.6 µM [inhibitor, partial curve, poor fit]"
Cc1ccc(CSc2nnc(C)c(=O)n2N)cc1,,"inconclusive: 0.112 µM [activator, full curve, poor fit]"
Brc1ccccc1OCCCN1CCCCCC1,,"inconclusive: 10 µM [inhibitor, partial curve, poor fit]"
Cc1ccc(CNC(=O)COC(=O)c2cncc(Br)c2)cc1,inactive: 1.9% [at 46.1 µM],
O=C(C1CCCN(Cc2ccc(Cl)cc2)C1)N1CCCCC1 (stereo unspecified),,"inconclusive: 3.55 µM [inhibitor, full curve, poor fit]"
COc1cc2c(cc1OC)-c1cc(OCc3ccccc3Cl)nc(=O)n1CC2,,"inconclusive: 4.61 µM [activator, partial curve, poor fit]"
O=C(/C=C/Nc1ccccc1F)c1ccc(Br)cc1,,"inconclusive: 7.08 µM [inhibitor, partial curve, poor fit]"
Cc1cccc(NC(=S)N/N=C/c2cccn2Cc2ccc(F)cc2)c1,,"inconclusive: 35.5 µM [inhibitor, partial curve, poor fit]"
CN(c1ccc(O)cc1)S(=O)(=O)c1ccc2ccccc2c1,,"inconclusive: 5.62 µM [activator, partial curve, poor fit]"
COc1ccc(Nc2cc(Nc3ccccc3)ncn2)cc1,inactive: -2.47%,

# Gathered by group, those above with an aryl thioether with sulfur outside any ring (two)
SMILES,"activity change, negative = inhibition",Potency
COc1ccc(-c2nnc(SCC(=O)O)n2Cc2ccccc2)cc1,inactive: 2.6% [at 46.1 µM],
Cc1ccc(CSc2nnc(C)c(=O)n2N)cc1,,"inconclusive: 0.112 µM [activator, full curve, poor fit]"
